Values from PubChem BioAssay AID1259308 (NCATS, 2017).
The deposit covers about 59,000 reagents; shown is a part drawn at random. Of all reagents, about 1,510 (2.6%) were called active. 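Calls use total luciferase alone and ignore viability, so some active siRNAs may act by altering cell number.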 The numbers tell different reagents against one gene apart. Reagent sequences are not shown.

Screen: 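Genes whose loss raises luciferase production in HEK293 cells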 (primary screen)
Cell system: human HEK293 embryonic kidney cells stably expressing firefly luciferase (HEK-CMV-Luc2-Hygro)
Reagents: single siRNA against human genes, 0.8 pmol siRNA per well
Time to read-out: 72 h
Detection: 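Luciferase light (ONE-Glo) measured on one replicate plate set and viability (CellTiter-Glo) on the other, scaled to a negative control siRNA, with robust z-scores and luciferase per cell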
Scale: total luciferase, z-score and total luciferase, % of control: higher = more reporter protein produced; luciferase per cell, z-score: higher = more reporter output per viable cell; viable cells, % of control: higher = more viable cells
Rule for the call: 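An siRNA counts as active if its total luciferase robust z-score exceeds 3; genes with two or more such siRNAs out of three were retested with fresh siRNAs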
Meaning of the calls: active = raised luciferase; inactive = no rise

gene knocked down	reagent no.	total luciferase, z-score	total luciferase, % of control	luciferase per cell, z-score	viable cells, % of control	call
EIF4B	1	-1.04	61.2	-0.828	85	inactive
EIF4B	2	-1.02	61.7	-1.19	94.3	inactive
EIF4B	3	-0.271	76.5	-0.402	95	inactive
STX1A	1	2.56	133	2.39	79.2	inactive
STX1A	2	1.84	119	1.4	91.6	inactive
STX1A	3	-1.29	56.2	-0.774	77	inactive
NPHS1	1	0.89	99.6	-0.0338	112	inactive
NPHS1	2	0.514	92.1	-0.336	112	inactive
NPHS1	3	1.42	110	0.956	95.7	inactive
TES	1	0.371	89.3	0.883	79.1	inactive
TES	2	-0.0672	80.5	-0.285	97	inactive
TES	3	-0.803	65.9	-0.536	84.8	inactive
MBNL3	1	1.19	106	0.669	98.9	inactive
MBNL3	2	0.627	94.4	0.268	98.2	inactive
MBNL3	3	0.386	89.6	0.237	94	inactive
RMDN2	1	-1.72	47.7	-0.228	56.6	inactive
RMDN2	2	-0.522	71.5	-0.777	98.1	inactive
RMDN2	3	-0.349	74.9	-0.743	102	inactive
ELAPOR1	1	0.615	94.1	0.902	82.9	inactive
ELAPOR1	2	-0.486	72.2	-0.386	89.4	inactive
ELAPOR1	3	1.04	103	1.02	87.6	inactive
REP15	1	-0.703	67.9	-0.797	93.6	inactive
REP15	2	-2.29	36.4	-2.29	74.3	inactive
REP15	3	0.868	99.2	0.425	99.1	inactive
DMKN	1	2.15	125	1.42	95.9	inactive
DMKN	2	-1.13	59.5	-0.273	71.4	inactive
DMKN	3	-0.46	72.7	0.614	69.1	inactive
TTC17	1	0.373	89.3	-0.596	117	inactive
TTC17	2	1.78	117	2.09	75.7	inactive
TTC17	3	-1.63	49.4	-1.18	75.3	inactive
FCGRT	1	-0.0963	80	0.0953	87.1	inactive
FCGRT	2	-0.322	75.5	-0.736	102	inactive
FCGRT	3	-0.347	75	-0.354	92	inactive
SMIM29	1	-0.489	72.2	-0.215	85.3	inactive
SMIM29	2	-1.35	54.9	-0.598	71.9	inactive
SMIM29	3	0.813	98	0.456	97.2	inactive
AGTR2	1	0.211	86.1	-0.0293	96.9	inactive
AGTR2	2	0.93	100	0.739	92.3	inactive
AGTR2	3	0.00975	82.1	-0.246	97.9	inactive
ZMYM4	1	-0.989	62.2	-1.04	91.5	inactive
ZMYM4	2	0.681	95.4	0.483	93.9	inactive
ZMYM4	3	-0.754	66.9	-0.994	97.1	inactive
KRTAP19-6	1	1.71	116	1.19	94.7	inactive
KRTAP19-6	2	-0.6	69.9	-0.437	87.7	inactive
KRTAP19-6	3	1.06	103	1.03	87.7	inactive
OSBPL3	1	0.0199	82.3	-0.477	104	inactive
OSBPL3	2	-0.364	74.6	-0.979	108	inactive
OSBPL3	3	0.332	88.5	-0.113	102	inactive
VPS72	1	-0.448	73	-0.78	100	inactive
VPS72	2	-1.43	53.5	-0.87	75.2	inactive
VPS72	3	0.315	88.1	0.44	87.7	inactive
COL16A1	1	4.28	167	3.14	81.7	active
COL16A1	2	-1.92	43.8	-1.17	66.5	inactive
COL16A1	3	-1.03	61.4	-1.3	96.6	inactive
PRR18	1	3.87	159	2.52	91.4	active
PRR18	2	-0.688	68.2	-0.058	77.4	inactive
PRR18	3	-1.15	59	-1.02	86.1	inactive
ADGRE5	1	2.49	131	2.9	68.4	inactive
ADGRE5	2	-1.35	55.1	-1.43	89.7	inactive
ADGRE5	3	1.31	108	0.906	95	inactive
PRSS48	1	-1.45	53	-1.56	89.3	inactive
PRSS48	2	0.354	88.9	0.65	83.7	inactive
PRSS48	3	0.287	87.6	-0.0821	100	inactive
CNTN5	1	0.513	92.1	0.00239	103	inactive
CNTN5	2	-0.0301	81.3	-0.491	103	inactive
CNTN5	3	-0.0593	80.7	-0.736	109	inactive
POLDIP2	1	-1.67	48.6	-1.23	75.1	inactive
POLDIP2	2	0.653	94.9	0.49	93.2	inactive
POLDIP2	3	-0.62	69.6	-0.145	80.8	inactive
METTL3	1	-2.18	38.5	-1.96	72	inactive
METTL3	2	1.55	113	1.6	82.6	inactive
METTL3	3	-0.714	67.7	-1.04	99.5	inactive
GAK	1	0.109	84	-0.00986	94.2	inactive
GAK	2	0.664	95.1	-0.11	109	inactive
GAK	3	0.755	96.9	0.949	84.4	inactive

Just “total luciferase, % of control” (6 entries from above):
ZMYM4 #2: 95.4
ZMYM4 #3: 66.9
KRTAP19-6 #1: 116
KRTAP19-6 #2: 69.9
KRTAP19-6 #3: 103
OSBPL3 #1: 82.3
